Assay results as given in article PMC8896011.
These are yes or no findings as the source states them, for the method shown. In cells and extracts the contact can be indirect. Here binding means that the protein was enriched with, or labelled near, the bait; the list need not be complete.

Chains of the proteins cited; added tags and fusions are not shown.
UniProt Q8TCN5: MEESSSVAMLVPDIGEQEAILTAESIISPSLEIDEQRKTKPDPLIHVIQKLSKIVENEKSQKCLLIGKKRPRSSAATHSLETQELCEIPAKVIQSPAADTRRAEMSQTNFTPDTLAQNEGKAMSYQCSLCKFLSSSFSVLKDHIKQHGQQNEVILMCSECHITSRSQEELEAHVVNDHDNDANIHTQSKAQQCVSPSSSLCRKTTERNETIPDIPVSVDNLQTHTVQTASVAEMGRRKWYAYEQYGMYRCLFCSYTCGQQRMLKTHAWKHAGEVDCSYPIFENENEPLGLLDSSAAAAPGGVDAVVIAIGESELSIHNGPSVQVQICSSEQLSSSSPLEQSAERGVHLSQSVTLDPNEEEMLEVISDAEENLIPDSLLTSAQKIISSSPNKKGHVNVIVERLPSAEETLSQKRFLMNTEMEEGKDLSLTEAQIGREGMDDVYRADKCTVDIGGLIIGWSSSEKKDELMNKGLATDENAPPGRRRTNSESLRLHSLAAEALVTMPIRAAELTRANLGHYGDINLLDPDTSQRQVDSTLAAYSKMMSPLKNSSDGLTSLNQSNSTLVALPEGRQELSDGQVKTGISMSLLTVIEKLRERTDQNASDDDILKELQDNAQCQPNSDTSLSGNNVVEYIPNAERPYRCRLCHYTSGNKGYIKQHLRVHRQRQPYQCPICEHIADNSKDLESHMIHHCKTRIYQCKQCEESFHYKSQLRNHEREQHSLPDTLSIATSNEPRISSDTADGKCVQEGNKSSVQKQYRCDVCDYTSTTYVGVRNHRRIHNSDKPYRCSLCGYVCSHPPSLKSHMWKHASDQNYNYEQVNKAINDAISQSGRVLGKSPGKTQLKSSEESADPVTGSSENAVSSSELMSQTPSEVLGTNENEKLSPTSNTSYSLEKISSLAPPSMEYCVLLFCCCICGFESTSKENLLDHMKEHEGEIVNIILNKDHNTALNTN
UniProt O14744: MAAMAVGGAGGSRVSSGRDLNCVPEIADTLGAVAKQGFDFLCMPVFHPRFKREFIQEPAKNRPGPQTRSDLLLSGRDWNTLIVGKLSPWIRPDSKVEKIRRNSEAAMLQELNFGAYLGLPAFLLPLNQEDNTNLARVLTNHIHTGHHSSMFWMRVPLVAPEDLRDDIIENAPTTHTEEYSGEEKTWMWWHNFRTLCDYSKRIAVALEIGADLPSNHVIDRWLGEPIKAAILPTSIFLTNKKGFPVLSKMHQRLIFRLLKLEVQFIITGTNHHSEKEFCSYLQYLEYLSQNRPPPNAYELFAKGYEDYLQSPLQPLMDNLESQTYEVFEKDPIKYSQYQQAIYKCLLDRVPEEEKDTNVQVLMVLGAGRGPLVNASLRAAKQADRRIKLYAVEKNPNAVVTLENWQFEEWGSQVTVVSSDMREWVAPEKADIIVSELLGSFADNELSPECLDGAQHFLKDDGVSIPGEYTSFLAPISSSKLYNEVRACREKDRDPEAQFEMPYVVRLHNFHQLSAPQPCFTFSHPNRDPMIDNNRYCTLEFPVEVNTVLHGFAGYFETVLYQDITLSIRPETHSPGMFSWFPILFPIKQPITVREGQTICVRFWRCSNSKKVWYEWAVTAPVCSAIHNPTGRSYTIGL

Molecular target: 3xFLAG-tagged ZNF507 (human) (UniProt Q8TCN5)
Test: affinity purification with mass spectrometry; nuclear extract (500 mM NaCl, diluted with an equal amount of Dilution buffer) of HEK293 cells transfected with 3xFLAG-ZNF507 or empty vector; pre-cleared with Protein A dynabeads; anti-FLAG M2 magnetic beads 6 h at 4°C; washes in 20 mM Tris-HCl pH 7.5, 150 mM NaCl with 0.1% Triton X-100 and once without detergent; eluted with 3X-FLAG peptide; LC-MS/MS

binding: binds
Substance: protein arginine methyltransferase 5 (from UniProt O14744 1-637) (enzyme)
